Results published in the supplement of paper PMC6411743.
± gives the standard deviation of the averaged measurements. Some of the results follow.

Sequences of proteins named here, by UniProt entry; tags and fusion partners are left off. A change or cut given only in a name is not applied to a line headed by its entry.
UniProt Q6NXE6: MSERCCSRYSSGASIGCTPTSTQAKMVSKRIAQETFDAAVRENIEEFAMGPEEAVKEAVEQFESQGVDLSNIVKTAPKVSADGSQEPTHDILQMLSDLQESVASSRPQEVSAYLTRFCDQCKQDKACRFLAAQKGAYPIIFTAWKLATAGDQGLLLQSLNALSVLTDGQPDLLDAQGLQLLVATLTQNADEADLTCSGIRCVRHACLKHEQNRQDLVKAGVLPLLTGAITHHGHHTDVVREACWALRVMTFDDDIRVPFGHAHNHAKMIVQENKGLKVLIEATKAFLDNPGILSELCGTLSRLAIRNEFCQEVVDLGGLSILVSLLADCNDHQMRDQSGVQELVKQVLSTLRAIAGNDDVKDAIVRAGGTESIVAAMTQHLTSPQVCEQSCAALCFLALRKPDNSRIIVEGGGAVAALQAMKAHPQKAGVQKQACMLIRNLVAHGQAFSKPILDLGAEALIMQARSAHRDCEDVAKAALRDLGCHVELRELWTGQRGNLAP
UniProt P08195: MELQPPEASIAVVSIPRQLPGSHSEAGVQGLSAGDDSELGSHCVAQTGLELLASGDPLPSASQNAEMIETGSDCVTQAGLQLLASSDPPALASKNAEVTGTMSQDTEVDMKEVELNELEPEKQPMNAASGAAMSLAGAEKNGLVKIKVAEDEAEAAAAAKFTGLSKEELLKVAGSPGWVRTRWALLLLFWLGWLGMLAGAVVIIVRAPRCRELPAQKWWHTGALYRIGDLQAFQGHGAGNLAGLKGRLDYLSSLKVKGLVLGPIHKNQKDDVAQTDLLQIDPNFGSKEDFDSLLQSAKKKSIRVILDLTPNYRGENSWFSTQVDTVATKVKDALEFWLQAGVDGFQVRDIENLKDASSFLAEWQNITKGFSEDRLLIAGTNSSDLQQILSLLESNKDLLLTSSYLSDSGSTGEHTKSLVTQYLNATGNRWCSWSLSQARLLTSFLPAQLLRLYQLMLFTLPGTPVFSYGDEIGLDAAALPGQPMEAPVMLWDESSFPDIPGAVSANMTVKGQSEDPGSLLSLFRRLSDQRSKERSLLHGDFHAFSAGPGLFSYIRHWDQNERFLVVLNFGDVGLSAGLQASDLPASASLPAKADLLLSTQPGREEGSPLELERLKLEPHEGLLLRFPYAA
UniProt P33121: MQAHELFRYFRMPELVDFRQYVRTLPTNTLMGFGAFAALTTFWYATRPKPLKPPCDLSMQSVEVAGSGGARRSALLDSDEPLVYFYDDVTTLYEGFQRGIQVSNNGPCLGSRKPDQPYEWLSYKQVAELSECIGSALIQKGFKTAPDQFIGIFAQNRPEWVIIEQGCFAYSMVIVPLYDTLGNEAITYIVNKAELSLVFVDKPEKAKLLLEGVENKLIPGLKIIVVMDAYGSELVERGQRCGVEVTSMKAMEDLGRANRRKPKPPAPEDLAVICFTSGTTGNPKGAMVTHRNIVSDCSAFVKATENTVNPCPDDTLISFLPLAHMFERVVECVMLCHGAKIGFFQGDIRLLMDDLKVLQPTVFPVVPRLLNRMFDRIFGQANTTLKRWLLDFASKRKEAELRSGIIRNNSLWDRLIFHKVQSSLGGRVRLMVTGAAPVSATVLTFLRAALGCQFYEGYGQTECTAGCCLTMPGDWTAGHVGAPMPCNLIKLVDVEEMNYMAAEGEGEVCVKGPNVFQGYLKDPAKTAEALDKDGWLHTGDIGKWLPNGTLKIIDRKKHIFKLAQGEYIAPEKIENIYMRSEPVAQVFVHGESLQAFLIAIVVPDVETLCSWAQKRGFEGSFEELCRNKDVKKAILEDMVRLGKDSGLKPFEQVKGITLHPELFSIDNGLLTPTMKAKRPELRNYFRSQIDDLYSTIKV
UniProt O94855: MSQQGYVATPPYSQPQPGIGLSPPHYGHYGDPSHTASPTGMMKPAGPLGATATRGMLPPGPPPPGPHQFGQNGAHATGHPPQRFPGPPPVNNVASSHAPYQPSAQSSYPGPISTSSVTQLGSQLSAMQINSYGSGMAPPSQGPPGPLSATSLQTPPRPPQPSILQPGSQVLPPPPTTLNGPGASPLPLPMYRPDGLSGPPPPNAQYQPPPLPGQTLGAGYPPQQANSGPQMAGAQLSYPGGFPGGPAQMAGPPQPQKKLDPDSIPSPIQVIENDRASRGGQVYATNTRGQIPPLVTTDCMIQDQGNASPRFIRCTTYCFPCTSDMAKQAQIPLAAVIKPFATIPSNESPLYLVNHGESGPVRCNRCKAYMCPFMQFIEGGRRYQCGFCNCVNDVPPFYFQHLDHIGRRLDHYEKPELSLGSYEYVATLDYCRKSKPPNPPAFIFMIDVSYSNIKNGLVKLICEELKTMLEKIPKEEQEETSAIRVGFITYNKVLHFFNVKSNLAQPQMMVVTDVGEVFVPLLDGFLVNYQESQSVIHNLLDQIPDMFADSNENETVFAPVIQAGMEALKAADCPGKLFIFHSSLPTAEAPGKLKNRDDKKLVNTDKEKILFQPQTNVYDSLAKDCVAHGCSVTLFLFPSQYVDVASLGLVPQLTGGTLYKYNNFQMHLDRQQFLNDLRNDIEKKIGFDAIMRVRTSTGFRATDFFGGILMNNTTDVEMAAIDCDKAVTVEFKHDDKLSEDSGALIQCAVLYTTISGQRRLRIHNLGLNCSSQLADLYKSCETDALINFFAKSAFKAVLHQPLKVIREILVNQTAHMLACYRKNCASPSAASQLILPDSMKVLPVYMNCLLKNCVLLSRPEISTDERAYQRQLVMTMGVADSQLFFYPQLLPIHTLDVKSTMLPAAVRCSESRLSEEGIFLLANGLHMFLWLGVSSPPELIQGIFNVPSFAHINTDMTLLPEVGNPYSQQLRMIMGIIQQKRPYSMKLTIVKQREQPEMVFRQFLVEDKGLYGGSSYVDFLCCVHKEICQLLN
UniProt P60660, whole entry: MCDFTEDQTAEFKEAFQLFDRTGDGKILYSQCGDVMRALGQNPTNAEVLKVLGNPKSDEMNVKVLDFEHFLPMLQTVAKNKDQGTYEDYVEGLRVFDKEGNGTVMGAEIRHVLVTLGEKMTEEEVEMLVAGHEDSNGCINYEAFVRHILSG
UniProt O14757: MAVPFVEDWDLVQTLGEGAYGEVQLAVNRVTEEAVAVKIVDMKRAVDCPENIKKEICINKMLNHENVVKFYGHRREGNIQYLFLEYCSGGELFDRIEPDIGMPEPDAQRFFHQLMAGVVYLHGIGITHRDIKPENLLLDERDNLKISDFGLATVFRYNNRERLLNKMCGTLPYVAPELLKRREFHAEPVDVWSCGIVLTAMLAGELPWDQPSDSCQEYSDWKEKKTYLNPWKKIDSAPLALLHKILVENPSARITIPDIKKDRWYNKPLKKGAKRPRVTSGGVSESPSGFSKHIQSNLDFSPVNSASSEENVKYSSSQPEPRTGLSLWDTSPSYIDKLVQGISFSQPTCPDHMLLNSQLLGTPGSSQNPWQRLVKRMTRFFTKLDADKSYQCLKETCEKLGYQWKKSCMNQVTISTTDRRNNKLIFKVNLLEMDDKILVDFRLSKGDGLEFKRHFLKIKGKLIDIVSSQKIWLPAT
UniProt P25208: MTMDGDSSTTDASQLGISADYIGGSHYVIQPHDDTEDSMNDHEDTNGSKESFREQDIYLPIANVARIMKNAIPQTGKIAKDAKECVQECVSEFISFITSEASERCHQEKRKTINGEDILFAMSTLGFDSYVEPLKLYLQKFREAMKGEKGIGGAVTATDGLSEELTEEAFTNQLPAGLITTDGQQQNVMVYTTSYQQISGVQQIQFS
UniProt P17987, whole entry: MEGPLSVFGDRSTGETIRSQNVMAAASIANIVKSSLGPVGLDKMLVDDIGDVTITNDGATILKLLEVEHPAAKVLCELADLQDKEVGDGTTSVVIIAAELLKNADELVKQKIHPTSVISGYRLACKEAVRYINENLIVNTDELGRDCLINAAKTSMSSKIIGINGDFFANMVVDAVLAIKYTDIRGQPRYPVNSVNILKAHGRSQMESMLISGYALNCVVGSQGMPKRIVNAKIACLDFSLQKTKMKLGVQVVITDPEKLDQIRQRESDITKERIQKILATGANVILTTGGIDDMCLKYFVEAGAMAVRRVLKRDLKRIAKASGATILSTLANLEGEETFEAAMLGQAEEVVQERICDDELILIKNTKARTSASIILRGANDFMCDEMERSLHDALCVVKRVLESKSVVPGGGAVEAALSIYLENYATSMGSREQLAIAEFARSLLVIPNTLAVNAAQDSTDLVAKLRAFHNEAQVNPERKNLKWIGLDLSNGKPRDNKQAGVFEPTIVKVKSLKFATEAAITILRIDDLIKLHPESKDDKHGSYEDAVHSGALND
UniProt Q9GZR7: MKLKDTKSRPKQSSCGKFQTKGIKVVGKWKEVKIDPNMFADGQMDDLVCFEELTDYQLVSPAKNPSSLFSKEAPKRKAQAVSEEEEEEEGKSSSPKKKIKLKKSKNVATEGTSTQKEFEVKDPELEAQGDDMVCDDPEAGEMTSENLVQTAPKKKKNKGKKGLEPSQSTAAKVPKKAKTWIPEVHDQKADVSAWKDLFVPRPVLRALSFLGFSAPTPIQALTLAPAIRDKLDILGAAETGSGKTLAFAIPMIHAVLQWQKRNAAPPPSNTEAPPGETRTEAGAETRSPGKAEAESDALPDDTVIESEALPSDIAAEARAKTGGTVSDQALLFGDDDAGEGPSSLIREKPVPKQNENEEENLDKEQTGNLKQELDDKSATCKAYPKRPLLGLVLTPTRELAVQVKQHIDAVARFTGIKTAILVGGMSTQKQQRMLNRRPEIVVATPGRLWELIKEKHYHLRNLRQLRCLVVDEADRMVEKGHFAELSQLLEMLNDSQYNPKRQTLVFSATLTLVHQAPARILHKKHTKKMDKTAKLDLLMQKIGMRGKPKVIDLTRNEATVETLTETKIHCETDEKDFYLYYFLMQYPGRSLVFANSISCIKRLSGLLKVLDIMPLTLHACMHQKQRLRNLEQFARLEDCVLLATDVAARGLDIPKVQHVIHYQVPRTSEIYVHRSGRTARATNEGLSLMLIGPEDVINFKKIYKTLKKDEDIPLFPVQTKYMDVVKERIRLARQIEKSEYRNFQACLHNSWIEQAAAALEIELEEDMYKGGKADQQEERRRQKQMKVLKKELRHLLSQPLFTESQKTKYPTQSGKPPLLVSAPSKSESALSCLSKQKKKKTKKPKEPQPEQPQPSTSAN
UniProt Q7KZI7: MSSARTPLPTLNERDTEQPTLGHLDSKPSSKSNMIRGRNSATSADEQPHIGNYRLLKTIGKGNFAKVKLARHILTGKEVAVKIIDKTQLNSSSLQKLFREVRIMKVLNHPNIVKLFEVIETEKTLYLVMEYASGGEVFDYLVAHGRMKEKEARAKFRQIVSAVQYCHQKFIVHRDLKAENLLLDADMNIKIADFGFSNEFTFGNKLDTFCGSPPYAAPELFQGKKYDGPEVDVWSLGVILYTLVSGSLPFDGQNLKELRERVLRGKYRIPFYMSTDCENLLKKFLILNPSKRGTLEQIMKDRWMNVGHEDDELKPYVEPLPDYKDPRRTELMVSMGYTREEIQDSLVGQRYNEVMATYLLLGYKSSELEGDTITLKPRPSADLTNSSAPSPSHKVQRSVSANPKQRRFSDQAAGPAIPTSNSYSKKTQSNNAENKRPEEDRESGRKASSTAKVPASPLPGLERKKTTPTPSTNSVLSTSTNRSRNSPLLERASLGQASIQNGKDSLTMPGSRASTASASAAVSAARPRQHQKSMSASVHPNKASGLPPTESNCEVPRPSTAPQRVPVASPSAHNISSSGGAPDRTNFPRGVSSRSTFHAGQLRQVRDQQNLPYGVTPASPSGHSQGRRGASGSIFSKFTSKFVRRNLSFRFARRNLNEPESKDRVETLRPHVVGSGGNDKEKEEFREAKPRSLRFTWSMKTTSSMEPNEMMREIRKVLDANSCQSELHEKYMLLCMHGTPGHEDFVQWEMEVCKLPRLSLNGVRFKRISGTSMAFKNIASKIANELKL
UniProt Q8N128: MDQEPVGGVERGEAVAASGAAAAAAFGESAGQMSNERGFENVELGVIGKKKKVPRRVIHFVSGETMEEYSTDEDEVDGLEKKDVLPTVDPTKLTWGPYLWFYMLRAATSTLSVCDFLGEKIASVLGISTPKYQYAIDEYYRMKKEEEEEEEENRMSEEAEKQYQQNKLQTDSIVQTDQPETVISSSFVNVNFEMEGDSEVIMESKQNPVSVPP
UniProt Q13889: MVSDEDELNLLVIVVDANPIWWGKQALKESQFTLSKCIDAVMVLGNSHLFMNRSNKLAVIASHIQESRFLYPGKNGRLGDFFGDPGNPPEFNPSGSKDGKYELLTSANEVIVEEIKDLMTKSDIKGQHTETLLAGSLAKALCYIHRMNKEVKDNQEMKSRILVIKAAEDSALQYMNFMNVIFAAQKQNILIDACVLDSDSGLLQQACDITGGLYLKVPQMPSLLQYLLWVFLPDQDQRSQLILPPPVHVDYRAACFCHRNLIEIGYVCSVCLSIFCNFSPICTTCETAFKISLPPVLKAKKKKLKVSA
UniProt Q9GZZ1: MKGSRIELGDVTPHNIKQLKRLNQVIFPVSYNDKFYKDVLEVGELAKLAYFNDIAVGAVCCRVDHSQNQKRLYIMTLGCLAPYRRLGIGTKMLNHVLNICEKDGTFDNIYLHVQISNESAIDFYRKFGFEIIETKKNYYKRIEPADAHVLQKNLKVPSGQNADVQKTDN

Compound: Nc1nc2c(ncn2[C@@H]2O[C@H](COP(=O)(O)OP(=O)(O)OP(=O)(O)O)[C@@H](O)[C@H]2O)c(=O)[nH]1 [guanosine triphosphate]
Assay: NP40-soluble protein abundance relative to vehicle (solubility fold change) (ratio); higher = more soluble protein in presence of GTP
How it was run: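 Jurkat crude lysate prepared with a Dounce homogeniser was treated at eight concentrations spanning 0.1 to 10 mM, 10 min at room temperature then 3 min at 37 °C. Solubilisation with 0.8% NP40 and benzonase and ultracentrifugation preceded TMT labelling of the supernatant for LC-MS/MS. Fold change against the detergent-processed vehicle was determined per replicate from vsn-normalised intensities, across three independent experiments.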

Row | Target | NP40-soluble protein abundance (concentration: 0.1mM) | NP40-soluble protein abundance (concentration: 0.5mM) | NP40-soluble protein abundance (concentration: 1mM) | NP40-soluble protein abundance (concentration: 2mM) | NP40-soluble protein abundance (concentration: 4mM) | NP40-soluble protein abundance (concentration: 6mM) | NP40-soluble protein abundance (concentration: 8mM) | NP40-soluble protein abundance (concentration: 10mM)
1 | F8VQZ7 and related entries (UniProt P50579) | 1.1 ± 0.013 | 1.05 ± 0.03 | 1 ± 0.022 | 0.988 ± 0.055 | 1.04 ± 0.037 | 1.01 ± 0.011 | 1.04 ± 0.099 | 0.97 ± 0.046
2 | F5H3X1 and related entries (UniProt Q6NXE6) | 1.01 ± 0.023 | 1.01 ± 0.02 | 0.974 ± 0.03 | 0.964 ± 0.038 | 0.937 ± 0.044 | 0.924 ± 0.017 | 0.915 ± 0.023 | 0.903 ± 0.031
3 | F5GZS6 and related entries (UniProt P08195) | 0.911 ± 0.091 | 0.898 ± 0.085 | 0.895 ± 0.078 | 0.851 ± 0.075 | 0.867 ± 0.081 | 0.865 ± 0.073 | 0.846 ± 0.08 | 0.855 ± 0.08
4 | E7EPM6 and related entries (UniProt P33121) | 1.01 ± 0.024 | 1.02 ± 0.05 | 0.961 ± 0.014 | 0.976 ± 0.046 | 0.944 ± 0.052 | 0.92 ± 0.033 | 0.901 ± 0.019 | 0.89 ± 0.054
5 | E7EWP0 and related entries (UniProt O43674) | 1.01 ± 0.033 | 1.03 ± 0.071 | 1.02 ± 0.067 | 1.04 ± 0.1 | 1.05 ± 0.048 | 1.03 ± 0.095 | 1.04 ± 0.084 | 1.02 ± 0.06
6 | E9PC44 and related entries (UniProt O94855) | 1.01 ± 0.011 | 1.05 ± 0.064 | 0.989 ± 0.016 | 0.9768 ± 0.0074 | 0.94 ± 0.015 | 0.956 ± 0.012 | 0.945 ± 0.014 | 0.922 ± 0.011
7 | F1T0I1 and related entries (UniProt O15027) | 0.995 ± 0.023 | 1.05 ± 0.018 | 1.12 ± 0.02 | 1.15 ± 0.028 | 1.16 ± 0.04 | 1.14 ± 0.029 | 1.21 ± 0.096 | 1.2 ± 0.094
8 | F5GWT4 and related entries (UniProt Q9H4A3) | 0.963 ± 0.058 | 0.99 ± 0.079 | 1 ± 0.081 | 0.96 ± 0.07 | 0.973 ± 0.061 | 0.978 ± 0.066 | 0.999 ± 0.074 | 0.994 ± 0.082
9 | G3V1V0 and related entries (UniProt P60660) | 0.82 ± 0.15 | 0.834 ± 0.13 | 0.971 ± 0.12 | 0.97 ± 0.15 | 0.983 ± 0.19 | 0.988 ± 0.15 | 0.966 ± 0.11 | 1.1 ± 0.23
10 | F8WAN1 and related entries (UniProt Q69YQ0) | 1.03 ± 0.076 | 1.09 ± 0.089 | 1.14 ± 0.047 | 1.08 ± 0.077 | 1.13 ± 0.064 | 1.14 ± 0.14 | 1.26 ± 0.16 | 1.26 ± 0.086
11 | F5H226 and related entries (UniProt P08397) | 0.991 ± 0.055 | 1 ± 0.057 | 0.948 ± 0.07 | 0.927 ± 0.071 | 0.897 ± 0.063 | 0.902 ± 0.058 | 0.914 ± 0.078 | 0.889 ± 0.075
12 | E7EUI8 and related entries (UniProt P11413) | 1.07 ± 0.06 | 1.06 ± 0.11 | 0.93 ± 0.035 | 0.927 ± 0.12 | 0.931 ± 0.093 | 0.896 ± 0.072 | 0.848 ± 0.076 | 0.803 ± 0.11
13 | E7EPP6 and related entries (UniProt O14757) | 1.046 ± 0.0087 | 1.05 ± 0.034 | 0.939 ± 0.025 | 0.957 ± 0.1 | 0.9241 ± 0.0074 | 0.934 ± 0.054 | 0.902 ± 0.021 | 0.888 ± 0.057
14 | F5H4V9 and related entries (UniProt Q16342) | 1.03 ± 0.092 | 1.06 ± 0.058 | 1.04 ± 0.079 | 1.11 ± 0.09 | 1.14 ± 0.1 | 1.17 ± 0.064 | 1.16 ± 0.07 | 1.21 ± 0.13
15 | F8VSL3 and related entries (UniProt P25208) | 0.877 ± 0.072 | 0.852 ± 0.035 | 0.895 ± 0.079 | 0.827 ± 0.13 | 0.774 ± 0.077 | 0.848 ± 0.099 | 0.866 ± 0.046 | 0.859 ± 0.11
16 | F5H136 and related entries (UniProt P17987) | 0.988 ± 0.02 | 1.07 ± 0.086 | 1.08 ± 0.12 | 1.11 ± 0.18 | 1.09 ± 0.2 | 1.1 ± 0.21 | 1.06 ± 0.19 | 1.02 ± 0.2
17 | G3V529 and related entries (UniProt Q9GZR7) | 0.996 ± 0.024 | 1.01 ± 0.019 | 0.978 ± 0.037 | 0.962 ± 0.012 | 0.968 ± 0.032 | 0.984 ± 0.015 | 0.993 ± 0.053 | 1.03 ± 0.051
18 | F8WF48 and related entries (UniProt Q99442) | 0.941 ± 0.026 | 0.961 ± 0.035 | 0.938 ± 0.045 | 0.882 ± 0.073 | 0.888 ± 0.077 | 0.905 ± 0.062 | 0.935 ± 0.031 | 0.895 ± 0.048
19 | E9PJF5 and related entries (UniProt Q9HCU9) | 1.06 ± 0.11 | 1.07 ± 0.059 | 1.16 ± 0.12 | 1.24 ± 0.1 | 1.32 ± 0.17 | 1.27 ± 0.11 | 1.22 ± 0.13 | 1.3 ± 0.18
20 | F5H5P4 and related entries (UniProt P15498) | 1.05 ± 0.043 | 1.05 ± 0.077 | 0.9215 ± 0.0078 | 0.935 ± 0.085 | 0.915 ± 0.041 | 0.896 ± 0.044 | 0.872 ± 0.053 | 0.84 ± 0.083
21 | E9PC69 and related entries (UniProt Q7KZI7) | 1.04 ± 0.074 | 1.09 ± 0.17 | 1.17 ± 0.28 | 1.17 ± 0.24 | 1.18 ± 0.27 | 1.16 ± 0.22 | 1.18 ± 0.35 | 1.16 ± 0.3
22 | E7ERK9 and related entries (UniProt Q9UI10) | 0.989 ± 0.017 | 1.03 ± 0.019 | 1.03 ± 0.067 | 1.01 ± 0.047 | 1.02 ± 0.09 | 1.03 ± 0.068 | 1.06 ± 0.083 | 1.05 ± 0.097
23 | G3V583 and related entries (UniProt Q8N128) | 0.912 ± 0.089 | 0.928 ± 0.084 | 0.869 ± 0.13 | 0.94 ± 0.16 | 0.887 ± 0.16 | 0.861 ± 0.14 | 0.87 ± 0.1 | 0.902 ± 0.14
24 | F5GWD3 and related entries (UniProt Q13889) | 1.25 ± 0.046 | 1.11 ± 0.037 | 0.995 ± 0.038 | 1.13 ± 0.091 | 1.08 ± 0.071 | 1.13 ± 0.098 | 1.1 ± 0.027 | 1.11 ± 0.027
25 | E7EQ69 (UniProt Q9GZZ1) | 1 ± 0.12 | 0.984 ± 0.065 | 0.956 ± 0.028 | 0.995 ± 0.11 | 1.01 ± 0.083 | 0.991 ± 0.045 | 0.902 ± 0.07 | 0.94 ± 0.099

2 records picked at random from those above, as already listed:
Row | Target | NP40-soluble protein abundance (concentration: 0.1mM) | NP40-soluble protein abundance (concentration: 0.5mM) | NP40-soluble protein abundance (concentration: 1mM) | NP40-soluble protein abundance (concentration: 2mM) | NP40-soluble protein abundance (concentration: 4mM) | NP40-soluble protein abundance (concentration: 6mM) | NP40-soluble protein abundance (concentration: 8mM) | NP40-soluble protein abundance (concentration: 10mM)
3 | F5GZS6 and related entries (UniProt P08195) | 0.911 ± 0.091 | 0.898 ± 0.085 | 0.895 ± 0.078 | 0.851 ± 0.075 | 0.867 ± 0.081 | 0.865 ± 0.073 | 0.846 ± 0.08 | 0.855 ± 0.08
2 | F5H3X1 and related entries (UniProt Q6NXE6) | 1.01 ± 0.023 | 1.01 ± 0.02 | 0.974 ± 0.03 | 0.964 ± 0.038 | 0.937 ± 0.044 | 0.924 ± 0.017 | 0.915 ± 0.023 | 0.903 ± 0.031
